In PubChem BioAssay AID1347423 (Functional Genomics Laboratory (NCATS/FGL), 2020):
The campaign covered roughly 52,000 sequences. About 210 (0.4%) were called active.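 Rule for the calls: active = gene whose silencing raises cell survival under the drug, median off-target-corrected z-score across its silencing RNAs 2 or more; inactive = the rest.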 The list shows a part of the results.

Test: Resistance to Poly (ADP-Ribose) Polymerase inhibitor: Gene Identification via Genome-wide siRNA Screen
Conditions: mouse BRCA2 R2336H ES cells, olaparib, CellTiter-Glo viability; active compounds read high
In short: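 Genome-wide siRNA screen (3 siRNAs/gene, 20 nM) in mouse ES cells carrying hypomorphic BRCA2 R2336H; olaparib 500 nM added 48 h post-transfection, CellTiter-Glo viability 72 h later. Normalized to plate-median negative control; MAD z-scores, gene median, seed-adjusted.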

| Sequence | z-score |
| --- | --- |
| CCAAGUAUUUUUCUCCUUATT against Stk38 | inactive: -0.963 |
| GGCUAAGACUAUGUUGUAATT against Mcsp | inactive: -0.0249 |
| CCUCGUUCCUAUCAUUAACTT against Sdccag8 | inactive: 0.858 |
| GGUCUUCCUGUUCUUGCUCTT against Olfr1009 | inactive: 0.917 |
| GGGUCCAUUGUCAAUGUCUTT against Cbr2 | inactive: -0.721 |
| UGGCUGCCCACACCUUUAATT against 9130416N05Rik | inactive: -1.13 |
| CCGUUUCUUUCCAUGAUAATT against D6Ertd245e | inactive: 1.17 |
| CGCCGAAAGACAAGAGUAUTT against Tgm3 | inactive: -1.15 |
| GACCGUCACCGCUAUGGAUTT against Hist2h4 | inactive: -1.19 |
| GCAGAUCUAUCCUAGCCGGTT against Sui1-rs1 | inactive: 1.95 |
| GGAGAACAUAAAAAUGGUGTT against Stk39 | inactive: -0.152 |
| GGUGGAACACAAUGGAUGCTT against A830006F12Rik | inactive: -0.903 |
| GGAAGAUCCAUUAUUUACUTT against AI450540 | inactive: -0.165 |
| GGUUACCAAGCCUAAGACCTT against Hist1h1b | inactive: -0.915 |
| CCAAUUCGUGUUAAGGAACTT against Mina | inactive: -1.35 |
| CCCAGGAUUCUACUAGAUUTT against 9130207N01 | inactive: 0.699 |
| GGACUUCAUGGAAAAUCUGTT against Pofut1 | inactive: 0.182 |
| GGCCUUCGAAAUAAUUCUGTT against Ppp1r14d | inactive: -0.233 |
| GGAAUGACUCUAGAAAUGATT against 3110050K21Rik | inactive: -0.684 |
| GCAUCGUCUAUAUUUUUGGTT against Timm50 | inactive: 0.16 |
| GGUUCUUAGCCUUAACCAUTT against 9130422G05Rik | inactive: -1.02 |
| GGACAUAAAAAUACGCCAGTT against Hsf1 | inactive: 3.22 |

| Sequence | z-score |
| --- | --- |
| GCAUGGAGAUUCUGUGCGGTT against Trim45 | inactive: -0.0509 |
| CCUUCUUUUACCGUCUCAATT against Gpr31c | inactive: -0.574 |
| CGAGUUAGUUUUUCUGGGCTT against 4833401D15Rik | inactive: 0.645 |
| GCCUCAUUUAUCAUGCGCGTT against BC023179 | inactive: -0.404 |
| GGAUUUGUCUUCUUUUGUCTT against Kif3b | inactive: 1.59 |
| GGCAAAAAUCAUUGUCAUUTT against C330018K18Rik | inactive: -0.0885 |
| GGAUAUGUACAGGAGCUAUTT against 1100001D10Rik | inactive: -0.224 |
| GGCACAGAGAACAAUACUUTT against Npy5r | inactive: -0.556 |
| GGAAUUUGCUGAAUUGCUCTT against Ophn1 | inactive: -0.28 |
| CCCUUUCAACCAUUAAGCUTT against Kcns2 | inactive: 2.36 |
| GCAUGACGGUGUUAACUACTT against Jam3 | inactive: 0.45 |
| GAUAAUUUGCACAUCCUCUTT against G630049C14Rik | inactive: 1.4 |
| GGCUCGGUAUCGUUUUUCATT against Arl3 | inactive: -0.411 |
| CCUGUCCUGAUGGUGAAACTT against LOC381286 | inactive: -0.393 |
| GGAAUUCAUGAACUACUAUTT against 1700028N11Rik | inactive: 0.136 |
| CCAUCAUAUCAGACCCUGGTT against Olfr733 | inactive: -3.5 |
| GCUACGUUCGAUAUGGGUGTT against H2-Tw3 | inactive: -0.57 |
| CCCAGCACAUGCUAUCUCUTT against Zfp295 | inactive: -0.42 |
| CCCUAAACCUCUUUCAACATT against A530083I02Rik | inactive: 0.136 |
| GGCCAUUUCUUUCAUAGAUTT against Dusp6 | inactive: 1.22 |
| CCAACUCGGAUCAACUUAUTT against Nfia | inactive: 1.38 |
| CCUCAGUUAUAGAUGAUCUTT against Rdh11 | inactive: -0.618 |

| Sequence | z-score |
| --- | --- |
| GGAAAACCCUAGCACCAUGTT against A430093F15Rik | inactive: -1.16 |
| GGACACAUACUACACUAAGTT against Rent1 | inactive: 0.916 |
| GCAGAUGCAAUUAUUACCCTT against Kcnmb1 | inactive: -0.00881 |
| CCAGAAGUCUUGCUGUCUGTT against 0710001E13Rik | inactive: 0.432 |
| GGGAGUUCUUGACCAAAUGTT against Katna1 | inactive: 0.469 |
| GAUAUGGAGGGCUAUGAUUTT against AI325464 | inactive: -1.38 |
| GGCAGAAACCAACCAACACTT against 2810410L24Rik | inactive: 0.765 |
| GCUAUAGGCUUAAUGAAAATT against 4931406B18Rik | inactive: -0.0731 |
| GUAAAAGGAGAUGAAGACATT against Sly | inactive: 1.12 |
| GCACAAUUGGAAUUGUACATT against Ubqln2 | inactive: 0.825 |
| CCAGGGUAUGUAAAUAUCUTT against Epha8 | inactive: 1.22 |
| GGGUUGUUUACAGUGAUCUTT against BC049806 | inactive: -1.54 |
| GGAGAAGAUCACAAGAGGGTT against Ugalt2 | inactive: -0.288 |
| GGUCCACAAUGGCAUCAUATT against Elf4 | inactive: -0.197 |
| GGCUUUGGUCAAGGAGAAGTT against Pias4 | inactive: -0.845 |
| GGGAAGAGUGGUGCAAUGATT against Olfr155 | inactive: 0.39 |
| GCGGAUCUCCCUAAGAAUUTT against Ctsz | inactive: -0.935 |
| GGGAAACACCUGGGUGCUUTT against Ctrl | inactive: 2.74 |
| CCCUUUAACAGCAAUUGUATT against Pramel5 | inactive: -1.56 |
| CGUCUAGGAUGUGAAGUUUTT against Rbp4 | inactive: -0.596 |
| GAAAGUGAAACCAUUGCUGTT against Defb37 | inactive: -0.12 |
| GUAAAUAAAUCUGGUGGCATT against Rps25 | inactive: -2.18 |

As entered above:
z-score with GGUUCUUAGCCUUAACCAUTT against 9130422G05Rik reads inactive: -1.02
z-score with GGAAUUCAUGAACUACUAUTT against 1700028N11Rik reads inactive: 0.136
z-score with GCCUCAUUUAUCAUGCGCGTT against BC023179 reads inactive: -0.404
